Results: publication PMC9507357

Amino acid sequences for entries named in this document (tags omitted).
UniProt Q9BRP0: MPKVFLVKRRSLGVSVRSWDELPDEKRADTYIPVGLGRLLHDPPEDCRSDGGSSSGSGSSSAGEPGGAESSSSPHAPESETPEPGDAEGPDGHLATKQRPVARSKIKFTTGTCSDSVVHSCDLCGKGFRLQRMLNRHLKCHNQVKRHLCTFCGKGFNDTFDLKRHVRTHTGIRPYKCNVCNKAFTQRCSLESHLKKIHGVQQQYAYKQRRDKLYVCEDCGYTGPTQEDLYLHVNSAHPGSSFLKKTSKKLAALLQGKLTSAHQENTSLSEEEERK
UniProt Q00987: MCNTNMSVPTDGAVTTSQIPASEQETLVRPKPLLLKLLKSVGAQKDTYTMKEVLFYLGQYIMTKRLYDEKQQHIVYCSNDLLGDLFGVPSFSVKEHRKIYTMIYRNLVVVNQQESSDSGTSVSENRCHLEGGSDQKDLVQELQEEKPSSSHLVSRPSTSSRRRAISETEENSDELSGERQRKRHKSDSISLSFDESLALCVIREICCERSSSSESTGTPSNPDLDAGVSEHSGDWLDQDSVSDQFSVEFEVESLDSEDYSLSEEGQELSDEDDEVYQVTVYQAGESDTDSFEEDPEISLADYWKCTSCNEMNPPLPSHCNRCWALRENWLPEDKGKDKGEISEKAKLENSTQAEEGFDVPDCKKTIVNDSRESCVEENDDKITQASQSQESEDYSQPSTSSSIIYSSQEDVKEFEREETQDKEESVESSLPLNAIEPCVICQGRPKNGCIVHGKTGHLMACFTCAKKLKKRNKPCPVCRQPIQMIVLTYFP
UniProt O75376: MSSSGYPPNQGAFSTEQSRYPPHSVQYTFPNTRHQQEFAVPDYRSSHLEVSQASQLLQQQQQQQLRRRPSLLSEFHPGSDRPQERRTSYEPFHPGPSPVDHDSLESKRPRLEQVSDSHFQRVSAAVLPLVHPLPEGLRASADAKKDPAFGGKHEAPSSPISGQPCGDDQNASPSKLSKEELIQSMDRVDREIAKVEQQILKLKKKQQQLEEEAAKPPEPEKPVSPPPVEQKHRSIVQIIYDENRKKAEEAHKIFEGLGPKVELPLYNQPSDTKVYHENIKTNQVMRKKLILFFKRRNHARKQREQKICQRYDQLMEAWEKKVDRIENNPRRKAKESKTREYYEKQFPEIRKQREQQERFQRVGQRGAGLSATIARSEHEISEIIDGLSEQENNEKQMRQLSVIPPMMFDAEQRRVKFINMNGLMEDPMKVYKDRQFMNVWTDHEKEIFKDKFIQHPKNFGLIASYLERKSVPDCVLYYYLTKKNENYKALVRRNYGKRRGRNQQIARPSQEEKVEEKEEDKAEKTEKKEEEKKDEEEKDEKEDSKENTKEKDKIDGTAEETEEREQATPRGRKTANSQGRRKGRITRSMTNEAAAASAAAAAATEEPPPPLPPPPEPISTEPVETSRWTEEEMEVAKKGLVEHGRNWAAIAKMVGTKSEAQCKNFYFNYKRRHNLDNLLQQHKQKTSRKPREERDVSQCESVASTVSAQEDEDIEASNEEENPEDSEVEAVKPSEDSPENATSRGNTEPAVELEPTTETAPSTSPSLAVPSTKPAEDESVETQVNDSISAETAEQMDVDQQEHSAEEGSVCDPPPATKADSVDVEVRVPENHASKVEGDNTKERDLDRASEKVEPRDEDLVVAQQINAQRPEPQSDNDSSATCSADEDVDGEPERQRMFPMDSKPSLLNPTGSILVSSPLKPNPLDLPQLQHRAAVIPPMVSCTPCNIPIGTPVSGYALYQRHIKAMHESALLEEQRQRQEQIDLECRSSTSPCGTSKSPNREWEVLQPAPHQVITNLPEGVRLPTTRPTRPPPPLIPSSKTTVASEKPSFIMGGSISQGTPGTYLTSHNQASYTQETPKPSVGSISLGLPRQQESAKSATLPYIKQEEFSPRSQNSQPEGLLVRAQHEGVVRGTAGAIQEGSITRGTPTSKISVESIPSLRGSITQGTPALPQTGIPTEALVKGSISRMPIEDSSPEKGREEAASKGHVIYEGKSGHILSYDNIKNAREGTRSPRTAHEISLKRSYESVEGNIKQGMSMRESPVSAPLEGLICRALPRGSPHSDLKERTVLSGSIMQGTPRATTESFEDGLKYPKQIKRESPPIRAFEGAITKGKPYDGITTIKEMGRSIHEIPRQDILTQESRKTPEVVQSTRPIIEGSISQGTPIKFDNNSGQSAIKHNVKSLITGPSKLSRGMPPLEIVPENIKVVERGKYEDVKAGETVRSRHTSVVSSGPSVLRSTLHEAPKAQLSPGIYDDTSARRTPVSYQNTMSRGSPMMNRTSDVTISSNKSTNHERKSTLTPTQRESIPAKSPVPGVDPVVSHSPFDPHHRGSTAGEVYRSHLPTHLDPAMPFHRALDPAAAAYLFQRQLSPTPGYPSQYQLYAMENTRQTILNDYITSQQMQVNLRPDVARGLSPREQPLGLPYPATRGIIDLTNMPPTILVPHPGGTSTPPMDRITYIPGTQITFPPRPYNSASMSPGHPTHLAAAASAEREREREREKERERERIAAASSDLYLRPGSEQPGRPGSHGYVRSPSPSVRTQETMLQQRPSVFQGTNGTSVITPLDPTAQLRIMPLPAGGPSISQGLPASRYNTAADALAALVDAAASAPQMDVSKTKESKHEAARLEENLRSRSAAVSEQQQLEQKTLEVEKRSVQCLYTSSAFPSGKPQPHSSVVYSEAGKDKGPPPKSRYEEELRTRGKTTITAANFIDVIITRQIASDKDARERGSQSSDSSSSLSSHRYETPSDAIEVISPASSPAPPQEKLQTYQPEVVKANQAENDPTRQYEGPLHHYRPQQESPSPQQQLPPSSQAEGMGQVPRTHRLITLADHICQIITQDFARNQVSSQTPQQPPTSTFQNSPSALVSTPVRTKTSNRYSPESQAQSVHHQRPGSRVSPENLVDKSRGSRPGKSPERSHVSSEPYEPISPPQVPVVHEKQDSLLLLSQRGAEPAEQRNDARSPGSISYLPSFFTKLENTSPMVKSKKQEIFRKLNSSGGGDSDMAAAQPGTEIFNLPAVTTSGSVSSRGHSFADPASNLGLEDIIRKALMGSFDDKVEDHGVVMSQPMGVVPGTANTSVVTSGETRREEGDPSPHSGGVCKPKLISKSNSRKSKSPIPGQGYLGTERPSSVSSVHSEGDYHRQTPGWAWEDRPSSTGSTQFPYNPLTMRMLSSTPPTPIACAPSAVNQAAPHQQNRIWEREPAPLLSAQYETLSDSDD
UniProt P35222: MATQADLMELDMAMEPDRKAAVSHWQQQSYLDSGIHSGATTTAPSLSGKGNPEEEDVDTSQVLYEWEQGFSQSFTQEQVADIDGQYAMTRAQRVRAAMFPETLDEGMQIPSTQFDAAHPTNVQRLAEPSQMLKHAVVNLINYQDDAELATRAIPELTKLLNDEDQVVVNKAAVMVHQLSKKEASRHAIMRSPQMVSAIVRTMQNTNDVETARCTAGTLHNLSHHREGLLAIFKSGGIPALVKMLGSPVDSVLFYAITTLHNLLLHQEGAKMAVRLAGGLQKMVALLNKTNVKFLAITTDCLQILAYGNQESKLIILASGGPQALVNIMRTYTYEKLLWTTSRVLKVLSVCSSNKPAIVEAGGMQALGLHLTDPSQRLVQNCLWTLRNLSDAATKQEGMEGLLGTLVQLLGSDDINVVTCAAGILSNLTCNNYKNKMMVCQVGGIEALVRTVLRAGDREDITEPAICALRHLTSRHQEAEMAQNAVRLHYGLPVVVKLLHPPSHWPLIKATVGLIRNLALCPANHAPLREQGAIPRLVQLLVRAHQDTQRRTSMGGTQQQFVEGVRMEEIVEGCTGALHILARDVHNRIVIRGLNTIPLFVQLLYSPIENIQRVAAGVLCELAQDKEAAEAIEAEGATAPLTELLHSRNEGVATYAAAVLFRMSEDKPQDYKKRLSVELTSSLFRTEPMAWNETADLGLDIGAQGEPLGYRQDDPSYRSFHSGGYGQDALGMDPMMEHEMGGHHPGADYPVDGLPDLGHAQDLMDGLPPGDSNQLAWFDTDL

These substances were tested against FLAG-tagged OVOL2 (OVO-like zinc finger 2) (UniProt Q9BRP0) (assay: affinity purification with mass spectrometry; lysate of 10^8 MCF7 cells stably expressing FLAG-OVOL2 (control: FLAG); anti-FLAG agarose 4 h at 4 °C in IP buffer (20 mM Tris pH 8.0, 0.25 M NaCl, 0.5% NP-40, 5 mM EDTA); eluted with FLAG peptide; SDS-PAGE, silver stain, differential bands by nanoLC-MS/MS).
“MDM2 (mouse double minute 2 homolog), endogenous (from UniProt Q00987 1-491) (enzyme)” was tested, and the binding was “binds”. With “NCoR (nuclear receptor co-repressor), endogenous (from UniProt O75376 1-2440)” the binding was “binds”. In the case of “β-catenin, endogenous (from UniProt P35222 1-781)”, the binding is reported as “binds”.

No constants are given. Whether binding was seen depends on the method and setting. In cells and extracts the contact can be indirect. A yes stands for co-enrichment or nearness to the bait. Other partners may have been found.
